# Data published in patent publication US20150072888A1, “Biomarkers For Diagnosis Of Diabetes And Monitoring Of Anti-Diabetic Therapy” (Sumitomo Bakelite Co., Ltd., priority 2012, published 2015).
# “Also recorded” adds a separate entry of the source. For at least one compound, name, drawing or mass did not settle the structure.
# How the values were obtained:
# [1] = system: diabetes patients; assay: Plasma N-glycan concentrations and glycan flow ratios in diabetes patients treated with pioglitazone (clinical trial samples); type: in vivo, human
# [2] = system: db/db mice; assay: Plasma N-glycan profile (GLYCANMAP, MALDI-TOF MS) of db/db mice treated with rosiglitazone, initial study (Table 1 summarises both rosiglitazone studies); type: in vivo, mouse; details: 10 mpk oral once daily vs vehicle; for Direction of change of fucosylated glycan 761040: days 3-39, low abundance, below LOQ in some samples; for Direction of change of fucosylated glycan 651030: days 3-39, p<0.001 at 7 days; for Direction of change of fucosylated glycan 651030 / Direction of change of O-acetylated glycan 540031 / Direction of change of O-acetylated glycan 540032 / Direction of change of fucosylated glycan 651031 / Direction of change of O-acetylated glycan 540021 / Direction of change of O-acetylated glycan 540022: sustained; for Direction of change of complex glycan 540020: days 3-39, p<0.001 at Day 7, sustained; for Direction of change of O-acetylated glycan 540031 / Direction of change of O-acetylated glycan 540032: days 3-39, p<0.001 at seven days; for Direction of change of hybrid glycan 530010: days 3-39, significant at 5 of 7 time points; for Direction of change of fucosylated glycan 651031: days 3-39, significant at Day 3, p<0.001 at 7 days; for Direction of change of O-acetylated glycan 540021 / Direction of change of O-acetylated glycan 540022: days 3-39, significant at Day 3, p<0.001 at seven days
# Experimental: A 10 μl aliquot of each plasma sample was spiked with internal standard (700 pmol) and analyzed for N-linked glycans using Ezose Sciences' GLYCANMAP methodology. The samples were denatured and then digested with trypsin, followed by heat-inactivation. The mixture was then treated with PNGase F. After enzymatic release of N-glycans, aliquots were subjected to solid-phase processing using BLOTGLYCO beads. Following capture on the beads, the sialic acid residues were methyl esterified. The glycans were simultaneously released from the beads and labeled, and then aliquots of the recovered materials were spotted onto a MALDI target plate. Steps from initial aliquoting to spotting on the MALDI plate were performed using the fully automated SWEETBLOT technology. MALDI-TOF MS analysis was performed on an ultraflex III mass spectrometer (Bruker Daltonics) in the positive-ion, reflector mode. Each sample from the BLOTGLYCO bead processing step was spotted in quadruplicate, and spectra were obtained in an automated manner using the AutoXecute feature in flexControl software (Bruker Daltonics). Proposed glycan structures were assigned based on molecular weight. These methods have been described previously by Nishimura, Furukawa and Miura (Nishimura et al., Angew Chem. Int. Ed. Engl., 44: 91-96 (2004); Furukawa et al., Anal. Chem., 80: 1094-1101 (2008); Miura et al., Chem.-A Eur. J, 13: 4797-4804 (2007)). Alternatively, standard fluorescent HPLC or capillary electrophoresis methods with 2-AA, 2-AB, or APTS labeling can be used to monitor the glycan levels and changes in glycan patterns.
# Rosigilitazone is a member of the athiazolidinedione class of anti-diabetic drugs, and is marketed by Glaxo under the trade name AVANDIA. Rosiglitazone works as an insulin sensitizer by binding to the peroxisome proliferator-activated receptors (PPAR) receptors in fat cells and making the cells more responsive to insulin. Diabetic (db/db) mice were treated once daily with an oral dose of 10 mpk rosiglitazone or with vehicle. Samples included plasma from 20 db/db mice (ten vehicle and ten rosiglitazone-treated) at each of seven time points: 3, 7, 10, 14, 21, 31, and 39 days. A baseline (Day 0) sample was not analyzed in the initial rosiglitazone study, but was included in a subsequent rosiglitazone confirmatory study. The confirmatory rosiglitazone study focused on glycan levels at baseline and 7 days.
# Several criteria were used in the initial rosiglitazone study to select the most promising biomarkers. Statistical significance was evaluated based on the Mann-Whitney test or Student's t-test and changes considered significant if the resulting p-value was less than 0.05. […] After the confirmatory rosiglitazone study, one glycan (530010) that had been excluded in the initial study was re-evaluated. […] It was therefore added to the original list of candidate biomarkers.
# [3] = system: db/db mice; assay: Plasma N-glycan profile of db/db mice treated with rosiglitazone, confirmatory study (Study 2); type: in vivo, mouse; details: db/db mice plasma vs vehicle, Study 2, Day 7
# [4] = 45 mg vs placebo, any time-point
# [5] = 45 mg vs placebo, p<0.01 at 2 weeks
# [6] = 45 mg vs placebo, p<0.05 at 2 weeks, p<0.01 at 4 and 12 weeks
# [7] = 45 mg vs placebo, p<0.05 at 4 weeks, p<0.01 at 12 weeks
# [8] = days 3-39, listed as Rosiglitazone, 10 mg/kg
# [9] = listed as Rosiglitazone, 10 mg/kg
# [10] = days 3-39, significant at Day 3 and Day 7, 10 mg/kg
# [11] = days 3-39, significant at Day 3 and Day 7, listed as Rosiglitazone, 10 mg/kg
# [12] = days 3-39, significant at Day 7, 10 mg/kg
# [13] = days 3-39, significant at Day 7, listed as Rosiglitazone, 10 mg/kg
smiles,measurement,setting,value
CCc1ccc(CCOc2ccc(CC3SC(=O)NC3=O)cc2)nc1 (stereo not shown) [pioglitazone],Glycan flow ratio 4510→5510,[1]; 45 mg vs placebo,decrease
same,Glycan flow ratio 5300→5400,[1]; 45 mg vs placebo,increase
same,Glycan flow ratio 5502→6502,[1]; 45 mg vs placebo,increase
same,Glycan flow ratio 6200→6300,[1]; 45 mg vs placebo,decrease
same,Glycan flow ratio 6511→6512,[1]; 45 mg vs placebo,increase
same,Glycan flow ratio 7602→7603,[1]; 45 mg vs placebo,decrease
same,Glycan flow ratio 7603→7613,[1]; 45 mg vs placebo,increase
same,Change in concentration of fucosylated glycan 5412,[1]; [4],not statistically significant
same,Changes in concentration of glycan 6503,[1]; [4],not statistically significant
same,Concentration of glycan 6511,[1]; [4],no statistically significant change
same,Glycan flow ratio 6501→6502,"[1]; 45 mg vs placebo, at 2 weeks (p<0.01)",statistically significant
same,Concentration of complex glycan 6502,"[1]; 45 mg vs placebo, not statistically significant at any time-point",increased
same,Concentration of complex glycan 6501,"[1]; 45 mg vs placebo, p<0.001 at 2 weeks, p<0.01 at 4 and 12 weeks",increase
same,Glycan flow ratio 5520→5521 (addition of N-acetylneuraminic acid),"[1]; 45 mg vs placebo, p<0.001 at 4 weeks and 12 weeks",decrease
same,Glycan flow ratio 5501→6501 (addition of galactose),"[1]; 45 mg vs placebo, p<0.001 at all time-points",increase; also recorded: high statistical significance
same,Glycan flow ratio 7200→6200 (removal of mannose),"[1]; 45 mg vs placebo, p<0.01 at 2 and 4 weeks, p<0.001 at 12 weeks",increase
same,Glycan flow ratio 5512→6512 (addition of galactose),"[1]; 45 mg vs placebo, p<0.01 at 2 and 4 weeks, p<0.05 at week 12",increases
same,Glycan flow ratio 4401→4411 (addition of fucose),[1]; [5],decrease
same,Glycan flow ratio 4401→4501 (addition of GlcNAc),[1]; [5],decrease
same,Glycan flow ratio 5511→6511 (addition of galactose),"[1]; 45 mg vs placebo, p<0.01 at 2 weeks and 4 weeks",increase
same,Concentration of fucosylated glycan 5512,"[1]; 45 mg vs placebo, p<0.01 at 2 weeks, not significant at 4 weeks, p<0.05 at 12 weeks",decrease
same,Glycan flow ratio 5401→5501 (addition of GlcNAc),"[1]; 45 mg vs placebo, p<0.01 at 2 weeks, p<0.05 at 12 weeks",decrease
same,Glycan flow ratio 5510→5520 (addition of fucose),"[1]; 45 mg vs placebo, p<0.01 at 4 weeks, significance at 12 weeks maintained",increase
same,Concentration of fucosylated glycan 5520,"[1]; 45 mg vs placebo, p<0.01 at 12 weeks, other time-points not significant",increase
same,Glycan flow ratio 5412→5512 (addition of GlcNAc),"[1]; 45 mg vs placebo, p<0.01 at the two earliest time-points",decrease
same,Concentration of fucosylated glycan 6512,"[1]; 45 mg vs placebo, p<0.05 at 2 and 4 weeks, not significant at 12 weeks",increase
same,Glycan flow ratio 5411→5412,"[1]; 45 mg vs placebo, p<0.05 at 2 weeks and 4 weeks",increases
same,Concentration of complex glycan 5501,[1]; [6],decrease
same,Glycan flow ratio 6502→6503 (addition of NAN),[1]; [6],decrease
same,Concentration of complex glycan 4401,"[1]; 45 mg vs placebo, p<0.05 at 2 weeks, p<0.01 at 4 weeks, p<0.001 at 12 weeks",increase
same,Glycan flow ratio 4301→4401,[1]; [7],significance
same,Glycan flow ratio 4400→4401,[1]; [7],statistically significant
same,Concentration of glycan 5510,"[1]; 45 mg vs placebo, p<0.05 only at 2 weeks",decrease
same,Concentration of fucosylated glycan 5511,"[1]; 45 mg vs placebo, significant only at 2 weeks (p<0.001)",decrease
same,Concentration of glycan 5521,"[1]; 45 mg vs placebo, significant only at 4 weeks (p<0.001)",decrease
same,Glycan flow ratio 6501→6511,"[1]; 45 mg vs placebo, statistically significant at all time-points",decreases
same,Concentration of glycan 6200,"[1]; patients' plasma, 45 mg vs placebo, any time-point",no significant change
same,Concentration of high mannose glycan 7200,"[1]; patients' plasma, 45 mg vs placebo, p<0.05 at all time-points (2, 4, 12 weeks)",decrease
same,Concentration of high mannose glycan 9200,"[1]; patients' plasma, 45 mg, during treatment, not statistically significant",trend of increasing concentration
same,Concentration of high mannose glycan 8200,"[1]; patients' plasma, 45 mg, during treatment, not statistically significant except at two weeks",trend of increasing concentration
CN(CCOc1ccc(CC2SC(=O)NC2=O)cc1)c1ccccn1 (stereo not shown) [rosiglitazone],Direction of change of hybrid glycan 430010,"[2]; days 3-39, 10 mg/kg",lower levels
same,Direction of change of hybrid glycan 630010,"[2]; days 3-39, 10 mg/kg",lower levels
same,Direction of change of hybrid glycan 430010,[2]; [8],Decreased
same,Direction of change of hybrid glycan 630010,[2]; [8],Decreased
same,Direction of change of fucosylated glycan 761040,[2]; 10 mg/kg,significantly higher levels
same,Direction of change of fucosylated glycan 761040,[2]; [9],Increased
same,Direction of change of fucosylated glycan 651030,[2]; 10 mg/kg,significantly higher levels
same,Direction of change of fucosylated glycan 651030,[2]; [9],Increased
same,Direction of change of complex glycan 540020,[2]; 10 mg/kg,significant decrease
same,Direction of change of complex glycan 540020,[2]; [9],Decreased
same,Direction of change of O-acetylated glycan 540031,[2]; 10 mg/kg,significant lower levels
same,Direction of change of O-acetylated glycan 540032,[2]; 10 mg/kg,significant lower levels
same,Direction of change of O-acetylated glycan 540031,[2]; [9],Decreased
same,Direction of change of O-acetylated glycan 540032,[2]; [9],Decreased
same,Direction of change of hybrid glycan 530010,[2]; 10 mg/kg,lower levels
same,Direction of change of hybrid glycan 530010,[2]; [9],Decreased
same,Direction of change of fucosylated glycan 651031,[2]; 10 mg/kg,significantly higher levels
same,Direction of change of fucosylated glycan 651031,[2]; [9],Increased
same,Direction of change of O-acetylated glycan 540021,[2]; 10 mg/kg,significant lower levels
same,Direction of change of O-acetylated glycan 540022,[2]; 10 mg/kg,significant lower levels
same,Direction of change of O-acetylated glycan 540021,[2]; [9],Decreased
same,Direction of change of O-acetylated glycan 540022,[2]; [9],Decreased
same,Direction of change of high mannose glycan 620000 (Man6GlcNAc2),[2]; [10],lower
same,Direction of change of high mannose glycan 720000 (Man7GlcNAc2),[2]; [10],lower
same,Direction of change of high mannose glycan 620000 (Man6GlcNAc2),[2]; [11],Decreased
same,Direction of change of high mannose glycan 720000 (Man7GlcNAc2),[2]; [11],Decreased
same,Direction of change of high mannose glycan 520000 (Man5GlcNAc2),[2]; [12],lower
same,Direction of change of high mannose glycan 820000 (Man8GlcNAc2),[2]; [12],lower
same,Direction of change of high mannose glycan 920000 (Man9GlcNAc2),[2]; [12],lower
same,Direction of change of high mannose glycan 520000 (Man5GlcNAc2),[2]; [13],Decreased
same,Direction of change of high mannose glycan 820000 (Man8GlcNAc2),[2]; [13],Decreased
same,Direction of change of high mannose glycan 920000 (Man9GlcNAc2),[2]; [13],Decreased
same,Level of O-acetylated glycan 540021,[3],lower
same,Level of O-acetylated glycan 540022,[3],lower
same,Level of O-acetylated glycan 540031,[3],lower
same,Level of O-acetylated glycan 540032,[3],lower
same,Level of fucosylated glycan 651030,[3],significant increase
same,Level of fucosylated glycan 651031,[3],significant increase
same,Level of fucosylated glycan 761040,[3],significant increase
same,Level of high mannose glycan 520000,[3],lower
same,Level of high mannose glycan 620000,[3],lower
same,Level of high mannose glycan 720000,[3],lower
same,Level of high mannose glycan 820000,[3],lower
same,Level of high mannose glycan 920000,[3],lower
same,Level of complex glycan 540020,[3]; p<0.0001,lower
same,Level of hybrid glycan 430010,[3]; p<0.001,lower
same,Level of hybrid glycan 530010,[3]; p<0.001,lower
same,Level of hybrid glycan 630010,[3]; p<0.001,lower
